Laboratory results taken from paper doi:10.1101/358655.
Like-named read-outs stand apart in the source and are kept apart here. These are yes or no findings as the source states them, for the method shown. For some of these results: In cells and extracts the contact can be indirect. Some entries that bind do so weakly or less than the wild type. For some of these results: Sequences can lack the tags named with a protein. Blank lines part the entries; values can stand above or below the molecule they belong to.

Protein sequences, listed by entry. Tags and fused reporters are not part of them.
UniProt P34244, whole entry: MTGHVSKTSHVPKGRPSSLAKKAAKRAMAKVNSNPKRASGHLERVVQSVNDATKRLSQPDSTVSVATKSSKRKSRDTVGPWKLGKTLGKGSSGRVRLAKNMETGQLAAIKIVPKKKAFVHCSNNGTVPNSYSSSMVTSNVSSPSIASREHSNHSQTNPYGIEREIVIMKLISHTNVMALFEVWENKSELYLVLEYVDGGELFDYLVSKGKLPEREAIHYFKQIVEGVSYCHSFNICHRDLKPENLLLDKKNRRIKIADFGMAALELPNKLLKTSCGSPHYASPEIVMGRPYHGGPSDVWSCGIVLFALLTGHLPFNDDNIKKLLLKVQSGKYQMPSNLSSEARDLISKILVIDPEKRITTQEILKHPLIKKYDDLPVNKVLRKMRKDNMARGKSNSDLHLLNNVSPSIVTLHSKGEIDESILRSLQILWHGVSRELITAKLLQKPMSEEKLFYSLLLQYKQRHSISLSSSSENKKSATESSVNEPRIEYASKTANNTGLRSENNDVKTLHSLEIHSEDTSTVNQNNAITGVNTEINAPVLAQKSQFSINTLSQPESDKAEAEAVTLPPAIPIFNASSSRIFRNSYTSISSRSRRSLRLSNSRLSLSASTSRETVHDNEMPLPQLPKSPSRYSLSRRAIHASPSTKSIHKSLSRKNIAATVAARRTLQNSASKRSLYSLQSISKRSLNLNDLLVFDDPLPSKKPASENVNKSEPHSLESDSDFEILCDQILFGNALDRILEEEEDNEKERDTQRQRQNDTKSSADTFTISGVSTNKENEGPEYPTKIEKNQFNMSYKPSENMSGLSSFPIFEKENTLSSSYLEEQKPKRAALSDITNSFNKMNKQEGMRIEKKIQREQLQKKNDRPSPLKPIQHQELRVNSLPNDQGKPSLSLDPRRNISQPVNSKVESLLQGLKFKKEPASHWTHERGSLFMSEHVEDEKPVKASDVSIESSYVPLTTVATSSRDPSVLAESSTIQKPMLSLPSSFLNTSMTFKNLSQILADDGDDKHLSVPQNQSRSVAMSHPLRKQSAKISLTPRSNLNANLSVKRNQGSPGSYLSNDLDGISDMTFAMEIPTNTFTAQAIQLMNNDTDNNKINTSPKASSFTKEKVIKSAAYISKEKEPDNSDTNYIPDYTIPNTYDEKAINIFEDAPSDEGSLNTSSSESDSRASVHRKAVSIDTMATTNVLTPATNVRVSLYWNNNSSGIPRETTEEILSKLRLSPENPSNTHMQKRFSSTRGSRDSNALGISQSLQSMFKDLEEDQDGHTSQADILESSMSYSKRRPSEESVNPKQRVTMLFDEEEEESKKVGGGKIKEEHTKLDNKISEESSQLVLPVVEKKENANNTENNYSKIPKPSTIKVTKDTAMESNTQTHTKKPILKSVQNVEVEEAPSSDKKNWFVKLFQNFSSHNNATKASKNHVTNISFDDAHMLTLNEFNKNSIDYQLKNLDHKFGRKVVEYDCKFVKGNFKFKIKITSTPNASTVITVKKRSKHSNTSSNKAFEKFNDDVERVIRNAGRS

Key:
[1] = molecular target: T1, His6-Cdh1 (recombinant, full-length, on beads) (S. cerevisiae) (UniProt P53197); assay: pull-down
T1 sequence: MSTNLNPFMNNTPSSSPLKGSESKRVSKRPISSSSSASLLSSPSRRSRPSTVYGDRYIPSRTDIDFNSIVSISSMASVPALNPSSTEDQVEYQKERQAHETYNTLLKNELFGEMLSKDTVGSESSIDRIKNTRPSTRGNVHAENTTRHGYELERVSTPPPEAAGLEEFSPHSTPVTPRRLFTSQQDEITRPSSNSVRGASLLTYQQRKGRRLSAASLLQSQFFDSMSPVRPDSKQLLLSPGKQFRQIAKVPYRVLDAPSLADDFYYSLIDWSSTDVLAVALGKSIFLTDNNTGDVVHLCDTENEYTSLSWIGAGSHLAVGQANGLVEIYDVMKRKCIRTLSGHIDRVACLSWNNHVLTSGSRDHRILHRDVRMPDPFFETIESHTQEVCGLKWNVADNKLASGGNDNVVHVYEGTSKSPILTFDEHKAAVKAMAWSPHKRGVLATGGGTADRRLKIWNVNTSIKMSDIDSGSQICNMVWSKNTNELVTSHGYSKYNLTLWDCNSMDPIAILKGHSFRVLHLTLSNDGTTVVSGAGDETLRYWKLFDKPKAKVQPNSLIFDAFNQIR

[2] = molecular target: T1, His6-Cdh1 (recombinant, full-length, on beads) (S. cerevisiae); assay: pull-down; remark: listed apart in the source
[3] = molecular target: T1, His6-Cdh1 (recombinant, full-length, on beads) (S. cerevisiae); assay: pull-down; remark: listed apart in the source
[4] = molecular target: T2, GST-Cdh1 (wild-type, full-length) (S. cerevisiae) (UniProt P53197); assay: pull-down
T2 sequence: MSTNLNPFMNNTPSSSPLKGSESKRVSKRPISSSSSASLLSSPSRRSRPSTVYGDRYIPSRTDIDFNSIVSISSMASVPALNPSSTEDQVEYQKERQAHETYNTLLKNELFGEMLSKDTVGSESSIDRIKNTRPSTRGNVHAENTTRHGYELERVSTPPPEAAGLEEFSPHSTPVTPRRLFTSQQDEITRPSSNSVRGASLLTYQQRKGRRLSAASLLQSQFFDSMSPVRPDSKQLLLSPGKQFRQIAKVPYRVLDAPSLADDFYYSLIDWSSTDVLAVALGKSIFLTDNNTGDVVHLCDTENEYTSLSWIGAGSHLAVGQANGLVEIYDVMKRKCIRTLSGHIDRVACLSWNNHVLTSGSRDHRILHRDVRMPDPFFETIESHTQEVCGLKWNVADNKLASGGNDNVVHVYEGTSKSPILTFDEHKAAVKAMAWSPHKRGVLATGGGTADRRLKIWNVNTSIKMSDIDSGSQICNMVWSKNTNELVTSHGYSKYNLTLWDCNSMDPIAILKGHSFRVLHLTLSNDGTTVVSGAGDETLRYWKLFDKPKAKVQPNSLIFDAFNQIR

[5] = molecular target: Cdh1 isolated from yeast extracts (S. cerevisiae) (UniProt P53197); assay: co-IP

binding [1]: binds
Molecule: MBP-Hsl1 (recombinant) (from UniProt P34244 1-1518)

binding [2]: binds
binding [3]: binds
binding [4]: binds
B1: HA-Cdh1 full-length (amino acids 1-566) (protein, UniProt P53197 1-566)
chain: MSTNLNPFMNNTPSSSPLKGSESKRVSKRPISSSSSASLLSSPSRRSRPSTVYGDRYIPSRTDIDFNSIVSISSMASVPALNPSSTEDQVEYQKERQAHETYNTLLKNELFGEMLSKDTVGSESSIDRIKNTRPSTRGNVHAENTTRHGYELERVSTPPPEAAGLEEFSPHSTPVTPRRLFTSQQDEITRPSSNSVRGASLLTYQQRKGRRLSAASLLQSQFFDSMSPVRPDSKQLLLSPGKQFRQIAKVPYRVLDAPSLADDFYYSLIDWSSTDVLAVALGKSIFLTDNNTGDVVHLCDTENEYTSLSWIGAGSHLAVGQANGLVEIYDVMKRKCIRTLSGHIDRVACLSWNNHVLTSGSRDHRILHRDVRMPDPFFETIESHTQEVCGLKWNVADNKLASGGNDNVVHVYEGTSKSPILTFDEHKAAVKAMAWSPHKRGVLATGGGTADRRLKIWNVNTSIKMSDIDSGSQICNMVWSKNTNELVTSHGYSKYNLTLWDCNSMDPIAILKGHSFRVLHLTLSNDGTTVVSGAGDETLRYWKLFDKPKAKVQPNSLIFDAFNQIR

binding [5]: binds
B2: Cdh1 isolated from yeast extracts (protein, UniProt P53197 1-566)
chain: MSTNLNPFMNNTPSSSPLKGSESKRVSKRPISSSSSASLLSSPSRRSRPSTVYGDRYIPSRTDIDFNSIVSISSMASVPALNPSSTEDQVEYQKERQAHETYNTLLKNELFGEMLSKDTVGSESSIDRIKNTRPSTRGNVHAENTTRHGYELERVSTPPPEAAGLEEFSPHSTPVTPRRLFTSQQDEITRPSSNSVRGASLLTYQQRKGRRLSAASLLQSQFFDSMSPVRPDSKQLLLSPGKQFRQIAKVPYRVLDAPSLADDFYYSLIDWSSTDVLAVALGKSIFLTDNNTGDVVHLCDTENEYTSLSWIGAGSHLAVGQANGLVEIYDVMKRKCIRTLSGHIDRVACLSWNNHVLTSGSRDHRILHRDVRMPDPFFETIESHTQEVCGLKWNVADNKLASGGNDNVVHVYEGTSKSPILTFDEHKAAVKAMAWSPHKRGVLATGGGTADRRLKIWNVNTSIKMSDIDSGSQICNMVWSKNTNELVTSHGYSKYNLTLWDCNSMDPIAILKGHSFRVLHLTLSNDGTTVVSGAGDETLRYWKLFDKPKAKVQPNSLIFDAFNQIR

binding [3]: binds
B3: HA-Cdh1 fragment 1-300 aa (domain or fragment, UniProt P53197 1-300)
chain: MSTNLNPFMNNTPSSSPLKGSESKRVSKRPISSSSSASLLSSPSRRSRPSTVYGDRYIPSRTDIDFNSIVSISSMASVPALNPSSTEDQVEYQKERQAHETYNTLLKNELFGEMLSKDTVGSESSIDRIKNTRPSTRGNVHAENTTRHGYELERVSTPPPEAAGLEEFSPHSTPVTPRRLFTSQQDEITRPSSNSVRGASLLTYQQRKGRRLSAASLLQSQFFDSMSPVRPDSKQLLLSPGKQFRQIAKVPYRVLDAPSLADDFYYSLIDWSSTDVLAVALGKSIFLTDNNTGDVVHLCD

binding [3]: no binding
B4: HA-Cdh1 fragment 1-280 aa (domain or fragment, UniProt P53197 1-280)
chain: MSTNLNPFMNNTPSSSPLKGSESKRVSKRPISSSSSASLLSSPSRRSRPSTVYGDRYIPSRTDIDFNSIVSISSMASVPALNPSSTEDQVEYQKERQAHETYNTLLKNELFGEMLSKDTVGSESSIDRIKNTRPSTRGNVHAENTTRHGYELERVSTPPPEAAGLEEFSPHSTPVTPRRLFTSQQDEITRPSSNSVRGASLLTYQQRKGRRLSAASLLQSQFFDSMSPVRPDSKQLLLSPGKQFRQIAKVPYRVLDAPSLADDFYYSLIDWSSTDVLAVA
